Source: article doi:10.1101/326512
Like-named read-outs stand apart in the source and are kept apart here. Results are given in words; binding and its absence hold for the method and conditions named. In cells and extracts the contact can be indirect. A yes stands for co-enrichment or nearness to the bait. Other partners may have been found. For some assays here: No binding means not detected with the bait. Sequences can lack the tags named with a protein. Values belong to the molecule of their own block, whether it stands above or below them.

Amino acid sequences for entries named in this document (tags omitted). Residues count along the entry.
UniProt P20029, residues 20-655: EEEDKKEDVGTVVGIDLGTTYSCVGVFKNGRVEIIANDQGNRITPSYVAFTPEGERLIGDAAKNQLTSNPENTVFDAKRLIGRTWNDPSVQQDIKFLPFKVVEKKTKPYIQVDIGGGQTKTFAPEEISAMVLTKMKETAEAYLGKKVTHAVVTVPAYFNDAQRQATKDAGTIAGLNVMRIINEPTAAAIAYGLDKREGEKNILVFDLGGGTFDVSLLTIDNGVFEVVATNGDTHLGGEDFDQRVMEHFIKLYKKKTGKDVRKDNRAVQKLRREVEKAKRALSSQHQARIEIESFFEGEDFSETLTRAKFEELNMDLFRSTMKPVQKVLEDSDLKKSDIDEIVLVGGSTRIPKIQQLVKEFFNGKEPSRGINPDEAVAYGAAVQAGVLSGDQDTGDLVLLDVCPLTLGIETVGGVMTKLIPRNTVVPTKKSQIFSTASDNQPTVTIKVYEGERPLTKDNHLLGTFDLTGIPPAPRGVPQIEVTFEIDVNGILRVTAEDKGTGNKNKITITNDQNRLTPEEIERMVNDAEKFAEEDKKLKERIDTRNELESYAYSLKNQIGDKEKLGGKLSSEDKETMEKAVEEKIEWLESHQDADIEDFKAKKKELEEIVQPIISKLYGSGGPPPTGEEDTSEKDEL
UniProt Q9QYJ3: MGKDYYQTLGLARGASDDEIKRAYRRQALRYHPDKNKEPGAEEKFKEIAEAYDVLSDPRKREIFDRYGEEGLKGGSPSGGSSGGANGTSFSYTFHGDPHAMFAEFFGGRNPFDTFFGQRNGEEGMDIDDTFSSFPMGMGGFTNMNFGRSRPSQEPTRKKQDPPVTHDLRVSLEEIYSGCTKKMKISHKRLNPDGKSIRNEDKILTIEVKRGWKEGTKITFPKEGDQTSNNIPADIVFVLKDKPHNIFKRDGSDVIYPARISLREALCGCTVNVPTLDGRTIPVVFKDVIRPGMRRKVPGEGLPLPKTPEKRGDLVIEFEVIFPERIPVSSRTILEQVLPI
UniProt P04202, residues 30-390: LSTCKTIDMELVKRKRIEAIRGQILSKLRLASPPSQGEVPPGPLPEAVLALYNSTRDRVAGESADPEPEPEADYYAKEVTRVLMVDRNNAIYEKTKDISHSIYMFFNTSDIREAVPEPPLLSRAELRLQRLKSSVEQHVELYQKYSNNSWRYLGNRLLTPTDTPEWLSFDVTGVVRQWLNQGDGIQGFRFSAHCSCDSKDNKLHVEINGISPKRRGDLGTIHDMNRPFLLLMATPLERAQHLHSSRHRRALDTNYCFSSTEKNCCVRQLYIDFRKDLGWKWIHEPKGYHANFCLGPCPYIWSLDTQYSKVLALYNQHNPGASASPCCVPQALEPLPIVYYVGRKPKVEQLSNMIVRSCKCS

What was measured:
[1] = target: T1, NRROS^LRR-Flag (NRROS with Flag-tag internal to the protein), stable in RAW 264.7 cells (mouse) (UniProt Q8BMT4); assay: affinity purification with mass spectrometry
T1 sequence: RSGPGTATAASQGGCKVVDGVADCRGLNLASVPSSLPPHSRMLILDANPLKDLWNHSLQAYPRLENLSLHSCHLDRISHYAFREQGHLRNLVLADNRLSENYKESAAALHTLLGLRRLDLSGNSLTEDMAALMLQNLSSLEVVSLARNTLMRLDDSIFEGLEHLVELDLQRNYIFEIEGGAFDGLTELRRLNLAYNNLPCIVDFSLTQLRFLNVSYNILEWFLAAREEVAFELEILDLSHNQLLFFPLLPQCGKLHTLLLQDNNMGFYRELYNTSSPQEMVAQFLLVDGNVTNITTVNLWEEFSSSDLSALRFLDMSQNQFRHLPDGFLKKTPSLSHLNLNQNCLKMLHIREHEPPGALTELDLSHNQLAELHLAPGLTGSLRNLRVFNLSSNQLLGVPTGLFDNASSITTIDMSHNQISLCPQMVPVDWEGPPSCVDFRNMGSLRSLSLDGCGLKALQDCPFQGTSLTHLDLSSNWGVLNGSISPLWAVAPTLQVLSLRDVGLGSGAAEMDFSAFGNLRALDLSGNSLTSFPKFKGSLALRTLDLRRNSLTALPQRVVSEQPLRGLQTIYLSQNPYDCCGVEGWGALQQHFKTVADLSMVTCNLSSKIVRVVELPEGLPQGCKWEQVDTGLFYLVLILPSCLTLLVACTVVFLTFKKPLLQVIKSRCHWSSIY

[2] = target: T2, NRROS^LAP (C-terminus LAP-tagged NRROS), stable in RAW 264.7 cells (mouse) (UniProt Q8BMT4); assay: affinity purification with mass spectrometry
T2 sequence: T1 sequence

[3] = target: T2, NRROS^LAP (C-terminus LAP-tagged NRROS), stable in RAW 264.7 cells (mouse); assay: affinity purification with mass spectrometry; remark: listed apart in the source
[4] = target: T2, NRROS^LAP (C-terminus LAP-tagged NRROS), stable in RAW 264.7 cells (mouse); assay: condition: only NRROS^LAP expressed at endogenous level
[5] = target: T1, NRROS^LRR-Flag (NRROS with Flag-tag internal to the protein), stable in RAW 264.7 cells (mouse); assay: affinity purification with mass spectrometry; remark: listed apart in the source
[6] = target: T2, NRROS^LAP (C-terminus LAP-tagged NRROS), stable in RAW 264.7 cells (mouse); assay: affinity purification with mass spectrometry; remark: listed apart in the source

binding [1]: binds
binding [2]: binds
binding [3]: binds
Molecule: Binding Immunoglobin protein (Bip)/Glucose-regulated protein 78(GRP78)/HSPA5 (endogenous, RAW 264.7) (from UniProt P20029 20-655)

binding [1]: binds
binding [2]: binds
Molecule: Dnajb1 (endogenous, RAW 264.7) (from UniProt Q9QYJ3 1-340)

binding [1]: binds
binding [2]: binds
binding [4]: no binding
Molecule: Tgfβ1 (endogenous, RAW 264.7) (from UniProt P04202 30-390)

binding [5]: binds
binding [6]: binds
B1: Hypoxia upregulated 1 (HYOU1) (endogenous, RAW 264.7) (protein, UniProt Q9JKR6 33-999)
chain: LAVMSVDLGSESMKVAIVKPGVPMEIVLNKESRRKTPVTVTLKENERFLGDSAAGMAIKNPKATLRYFQHLLGKQADNPHVALYRSRFPEHELIVDPQRQTVRFQISPQLQFSPEEVLGMVLNYSRSLAEDFAEQPIKDAVITVPAFFNQAERRAVLQAARMAGLKVLQLINDNTATALSYGVFRRKDINSTAQNVMFYDMGSGSTVCTIVTYQTVKTKEAGMQPQLQIRGVGFDRTLGGLEMELRLREHLAKLFNEQRKGQKAKDVRENPRAMAKLLREANRLKTVLSANADHMAQIEGLMDDVDFKAKVTRVEFEELCADLFDRVPGPVQQALQSAEMSLDQIEQVILVGGATRVPKVQEVLLKAVGKEELGKNINADEAAAMGAVYQAAALSKAFKVKPFVVRDAVIYPILVEFTREVEEEPGLRSLKHNKRVLFSRMGPYPQRKVITFNRYSHDFNFHINYGDLGFLGPEDLRVFGSQNLTTVKLKGVGESFKKYPDYESKGIKAHFNLDESGVLSLDRVESVFETLVEDSPEEESTLTKLGNTISSLFGGGTSSDAKENGTDAVQEEEESPAEGSKDEPAEQGELKEEAEPPAEETSQPPPSEPKGDAAREGEKPDEKESGDKPEAQKPNEKGQAGPEGAAPAPEEDKKPKPARKQKMVEEIGVELAVLDLPDLPEDELARSVQKLEELTLRDLEKQEREKAANSLEAFIFETQDKLYQPEYQEVSTEEQREEISGKLSATSTWLEDEGFGATTVMLKDKLAELRKLCQGLFFRVEERRKWPERLSALDNLLNHSSIFLKGARLIPEMDQVFTEVEMTTLEKVINDTWAWKNATLAEQAKLPATEKPVLLSKDIEAKMMALDREVQYLLNKAKFTKPRPRPKDKNGTRAEPPLNASAGDQEEKVIPPAGQTEEAKPILEPDKEETGTEPADSEPLELGGPGAGPEQEEQSAGQKRPSKNDEL

binding [5]: binds
binding [6]: binds
binding [3]: binds
B2: calnexin (endogenous, RAW 264.7) (protein, UniProt P35564 21-591)
chain: HDGHDDDAIDIEDDLDDVIEEVEDSKSKSDASTPPSPKVTYKAPVPTGEVYFADSFDRGSLSGWILSKAKKDDTDDEIAKYDGKWEVDEMKETKLPGDKGLVLMSRAKHHAISAKLNKPFLFDTKPLIVQYEVNFQNGIECGGAYVKLLSKTAELSLDQFHDKTPYTIMFGPDKCGEDYKLHFIFRHKNPKTGVYEEKHAKRPDADLKTYFTDKKTHLYTLILNPDNSFEILVDQSVVNSGNLLNDMTPPVNPSREIEDPEDRKPEDWDERPKIADPDAVKPDDWDEDAPSKIPDEEATKPEGWLDDEPEYIPDPDAEKPEDWDEDMDGEWEAPQIANPKCESAPGCGVWQRPMIDNPNYKGKWKPPMIDNPNYQGIWKPRKIPNPDFFEDLEPFKMTPFSAIGLELWSMTSDIFFDNFIISGDRRVVDDWANDGWGLKKAADGAAEPGVVLQMLEAAEERPWLWVVYILTVALPVFLVILFCCSGKKQSNAMEYKKTDAPQPDVKDEEGKEEEKNKRDEEEEEEKLEEKQKSDAEEDGVTGSQDEEDSKPKAEEDEILNRSPRNRKPRRE

binding [6]: binds
B3: EDEM1 (endogenous, RAW 264.7) (protein, UniProt Q925U4 1-652)
chain: MQWRALVLGLVLLRLGLHAVLWLVFGLGPSMGFYQRFPLSFGFQRLRDPDGSGPVGPPGGPAWLHRPRRGTEGRLETPPEPGPTPGPGVCGPAHWGYALGGGGCGPDEYERRYSGAFPPQLRAQMRDLARGMFVFGYDNYMAHAFPQDELNPIYCRGRGPDRGDPSNLNINDVLGNYSLTLVDALDTLAIMGNSSEFQKAVKLVINTVSFDKDSTVQVFEATIRVLGSLLSAHRIITDSKQPFGDMTIEDYDNELLYMAHDLAVRLLPAFENTKTGIPYPRVNLKTGVPPDSNNETCTAGAGSLLVEFGILSRLLGDSTFEWVARRAVKALWNLRSNDTGLLGNVVNIQTGHWVGKQSGLGAGLDSFYEYLLKSYILFGEKEDLEMFNAAYQSIQSYLRRGREACNEGEGDPPLYVNVNMFSGQLMNTWIDSLQAFFPGLQVLIGDVEDAICLHAFYYAIWKRYGALPERYNWQLQAPDVLFYPLRPELVESTYLLYQATKNPFYLHVGMDILQSLEKYTKVKCGYATLHHVIDKSKEDRMESFFLSETCKYLYLLFDEENPVHKSGTRYMFTTEGHIISVDKRLRELPWKEFFSEDGERDQEEKFVHRPKSQELRVINSSSNCNRVPDERRYSLPLKSIYMRQIDQMVGLI
